# In PMC7210770:
# The chains behind the UniProt entries cited, without tags or fusion partners.
# UniProt Q38898: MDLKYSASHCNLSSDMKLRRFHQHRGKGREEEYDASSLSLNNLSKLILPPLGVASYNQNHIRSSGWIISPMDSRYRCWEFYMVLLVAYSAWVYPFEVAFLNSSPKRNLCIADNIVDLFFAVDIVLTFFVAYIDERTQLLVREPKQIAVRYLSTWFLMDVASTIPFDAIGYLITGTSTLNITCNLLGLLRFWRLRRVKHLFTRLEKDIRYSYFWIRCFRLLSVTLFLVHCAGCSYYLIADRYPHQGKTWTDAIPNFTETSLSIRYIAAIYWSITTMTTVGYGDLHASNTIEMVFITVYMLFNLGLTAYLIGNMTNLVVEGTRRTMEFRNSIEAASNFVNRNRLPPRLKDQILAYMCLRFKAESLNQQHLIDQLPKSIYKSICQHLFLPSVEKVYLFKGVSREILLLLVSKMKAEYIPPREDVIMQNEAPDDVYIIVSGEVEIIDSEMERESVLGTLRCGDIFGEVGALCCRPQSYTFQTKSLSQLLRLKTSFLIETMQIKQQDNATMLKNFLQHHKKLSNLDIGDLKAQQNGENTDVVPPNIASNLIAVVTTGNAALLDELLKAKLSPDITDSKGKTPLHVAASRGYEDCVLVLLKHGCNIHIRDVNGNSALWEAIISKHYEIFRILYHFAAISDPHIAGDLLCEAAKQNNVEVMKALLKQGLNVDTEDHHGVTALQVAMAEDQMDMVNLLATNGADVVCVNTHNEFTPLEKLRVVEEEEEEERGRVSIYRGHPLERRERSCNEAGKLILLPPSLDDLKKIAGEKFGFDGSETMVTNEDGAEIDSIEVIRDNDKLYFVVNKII
# Results are given in words; binding and its absence hold for the method and conditions named. Binding seen in cells or lysates may run through a third protein.
# B1: CIPK25ΔC (kinase domain of CIPK25, lacking the C-terminal domain), BiFC construct in pDH51-GW-YFPC (domain or fragment, UniProt Q8W1D5 43-297)
# chain: YEMGRLLGKGTFGKVYYGKEITTGESVAIKIINKDQVKREGMMEQIKREISIMRLVRHPNIVELKEVMATKTKIFFIMEYVKGGELFSKIVKGKLKEDSARKYFQQLISAVDFCHSRGVSHRDLKPENLLVDENGDLKVSDFGLSALPEQILQDGLLHTQCGTPAYVAPEVLRKKGYDGAKGDIWSCGIILYVLLAGFLPFQDENLMKMYRKIFKSEFEYPPWFSPESKRLISKLLVVDPNKRISIPAIMRTPWF
# Molecular target: AKT2 (K+ channel), BiFC construct (Arabidopsis) (UniProt Q38898)
# Assay: split reporter; BiFC with split YFP (pDH51-GW-YFPC / pDH51-GW-YFPN) co-transfected into Arabidopsis mesophyll protoplasts, 16 h at 25 °C in the dark, confocal microscopy; empty vectors as negative controls
binder,measurement,value
B1,binding,no binding
